In the supplement of paper PMC7666118:
Some of the results follow.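 The calls were made as follows: active = dose-dependent thermal stabilisation significant by F-test of dose-response against flat model at 10% FDR; inactive = not significant.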

Protein sequences, listed by entry. Tags and fused reporters are not part of them. Lines headed by an entry give the natural chain unless they say otherwise; changes in a name come on top.
UniProt O60701: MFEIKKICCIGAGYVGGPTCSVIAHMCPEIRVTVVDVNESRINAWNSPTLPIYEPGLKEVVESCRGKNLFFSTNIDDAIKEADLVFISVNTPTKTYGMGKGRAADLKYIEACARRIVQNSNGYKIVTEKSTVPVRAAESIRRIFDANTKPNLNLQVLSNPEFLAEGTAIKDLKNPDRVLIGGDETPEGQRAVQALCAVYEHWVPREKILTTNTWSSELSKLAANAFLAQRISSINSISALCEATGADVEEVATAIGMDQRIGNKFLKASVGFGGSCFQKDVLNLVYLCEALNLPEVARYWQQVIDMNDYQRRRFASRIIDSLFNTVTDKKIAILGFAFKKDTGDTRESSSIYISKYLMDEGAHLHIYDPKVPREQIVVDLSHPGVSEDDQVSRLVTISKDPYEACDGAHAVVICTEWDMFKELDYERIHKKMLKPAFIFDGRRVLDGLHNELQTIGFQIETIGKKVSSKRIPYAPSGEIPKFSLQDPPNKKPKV
UniProt Q9H267: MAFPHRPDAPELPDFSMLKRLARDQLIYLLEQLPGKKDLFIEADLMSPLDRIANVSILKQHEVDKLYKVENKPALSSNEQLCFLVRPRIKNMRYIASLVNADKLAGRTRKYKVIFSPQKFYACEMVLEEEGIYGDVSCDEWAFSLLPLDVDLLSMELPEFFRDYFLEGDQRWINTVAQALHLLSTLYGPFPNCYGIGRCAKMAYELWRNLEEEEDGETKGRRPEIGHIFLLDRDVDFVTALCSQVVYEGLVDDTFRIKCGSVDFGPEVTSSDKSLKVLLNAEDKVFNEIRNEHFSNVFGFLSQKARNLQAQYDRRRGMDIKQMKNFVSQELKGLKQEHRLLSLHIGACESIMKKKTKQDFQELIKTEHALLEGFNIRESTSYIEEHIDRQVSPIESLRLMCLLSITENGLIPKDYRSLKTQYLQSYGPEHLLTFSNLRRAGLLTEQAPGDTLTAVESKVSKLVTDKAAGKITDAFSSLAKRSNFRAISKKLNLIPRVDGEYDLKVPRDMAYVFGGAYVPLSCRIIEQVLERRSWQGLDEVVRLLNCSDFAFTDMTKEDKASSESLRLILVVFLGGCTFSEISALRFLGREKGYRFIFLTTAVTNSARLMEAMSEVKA
UniProt Q9UIA9: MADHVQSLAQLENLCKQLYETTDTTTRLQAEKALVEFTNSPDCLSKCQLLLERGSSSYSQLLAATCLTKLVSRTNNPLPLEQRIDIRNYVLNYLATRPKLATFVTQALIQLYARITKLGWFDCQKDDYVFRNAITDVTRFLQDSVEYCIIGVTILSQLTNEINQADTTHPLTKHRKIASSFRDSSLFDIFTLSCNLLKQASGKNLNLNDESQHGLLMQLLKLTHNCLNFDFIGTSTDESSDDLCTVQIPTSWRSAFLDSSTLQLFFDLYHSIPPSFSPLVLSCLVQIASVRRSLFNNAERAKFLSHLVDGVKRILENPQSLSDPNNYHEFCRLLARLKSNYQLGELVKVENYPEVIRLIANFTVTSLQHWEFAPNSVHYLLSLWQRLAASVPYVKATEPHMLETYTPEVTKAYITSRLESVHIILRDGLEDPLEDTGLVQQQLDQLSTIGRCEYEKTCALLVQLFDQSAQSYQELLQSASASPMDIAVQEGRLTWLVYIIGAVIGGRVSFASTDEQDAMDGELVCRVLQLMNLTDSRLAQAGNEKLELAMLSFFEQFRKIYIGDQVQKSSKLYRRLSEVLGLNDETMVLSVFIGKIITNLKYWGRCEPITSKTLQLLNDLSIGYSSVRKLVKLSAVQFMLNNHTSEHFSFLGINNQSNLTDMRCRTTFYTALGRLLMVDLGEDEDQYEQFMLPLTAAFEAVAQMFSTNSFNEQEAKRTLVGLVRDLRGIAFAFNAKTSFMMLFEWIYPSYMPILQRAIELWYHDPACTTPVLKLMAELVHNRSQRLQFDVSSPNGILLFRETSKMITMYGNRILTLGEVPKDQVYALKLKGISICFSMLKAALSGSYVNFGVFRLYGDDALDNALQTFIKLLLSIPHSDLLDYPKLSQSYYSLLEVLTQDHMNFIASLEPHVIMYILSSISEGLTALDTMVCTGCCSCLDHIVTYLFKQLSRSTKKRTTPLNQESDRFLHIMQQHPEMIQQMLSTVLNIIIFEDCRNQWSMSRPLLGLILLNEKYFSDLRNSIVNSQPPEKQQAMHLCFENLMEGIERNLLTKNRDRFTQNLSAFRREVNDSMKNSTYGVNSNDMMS
UniProt Q9Y4E1, whole entry: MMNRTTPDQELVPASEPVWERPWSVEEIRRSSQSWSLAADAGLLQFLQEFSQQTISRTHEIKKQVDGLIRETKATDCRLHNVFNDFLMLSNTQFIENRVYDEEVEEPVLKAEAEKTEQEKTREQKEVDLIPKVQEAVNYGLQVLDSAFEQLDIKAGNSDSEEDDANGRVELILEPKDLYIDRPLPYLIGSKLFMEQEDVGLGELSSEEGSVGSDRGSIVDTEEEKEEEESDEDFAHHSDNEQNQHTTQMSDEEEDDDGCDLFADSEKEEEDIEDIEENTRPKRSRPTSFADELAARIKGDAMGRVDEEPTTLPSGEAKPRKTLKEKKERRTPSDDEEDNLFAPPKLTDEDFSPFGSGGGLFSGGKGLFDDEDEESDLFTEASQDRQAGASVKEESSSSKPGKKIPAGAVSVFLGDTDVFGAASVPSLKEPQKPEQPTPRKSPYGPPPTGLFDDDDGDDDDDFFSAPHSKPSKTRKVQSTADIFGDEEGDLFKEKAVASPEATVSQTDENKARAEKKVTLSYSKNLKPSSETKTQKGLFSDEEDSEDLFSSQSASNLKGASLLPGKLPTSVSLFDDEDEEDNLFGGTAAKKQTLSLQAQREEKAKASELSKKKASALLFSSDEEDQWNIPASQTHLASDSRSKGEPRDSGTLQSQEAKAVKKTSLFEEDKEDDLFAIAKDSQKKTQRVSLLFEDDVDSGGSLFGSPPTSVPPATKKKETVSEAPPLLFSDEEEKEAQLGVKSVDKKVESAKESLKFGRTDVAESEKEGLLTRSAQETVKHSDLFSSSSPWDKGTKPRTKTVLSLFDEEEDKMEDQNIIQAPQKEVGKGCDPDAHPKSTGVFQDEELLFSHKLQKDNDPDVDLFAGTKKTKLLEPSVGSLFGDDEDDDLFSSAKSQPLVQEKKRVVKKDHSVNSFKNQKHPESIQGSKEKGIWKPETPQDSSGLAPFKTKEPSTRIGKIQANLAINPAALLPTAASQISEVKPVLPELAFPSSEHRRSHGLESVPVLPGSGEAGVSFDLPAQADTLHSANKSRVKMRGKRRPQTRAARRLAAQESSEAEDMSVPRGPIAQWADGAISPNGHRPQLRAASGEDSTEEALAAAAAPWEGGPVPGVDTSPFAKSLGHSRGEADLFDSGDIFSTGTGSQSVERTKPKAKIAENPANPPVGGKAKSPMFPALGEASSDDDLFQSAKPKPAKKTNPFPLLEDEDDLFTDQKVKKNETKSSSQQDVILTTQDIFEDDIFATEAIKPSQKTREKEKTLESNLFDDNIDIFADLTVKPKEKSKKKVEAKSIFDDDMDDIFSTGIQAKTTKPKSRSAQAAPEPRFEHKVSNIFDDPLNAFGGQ
UniProt Q15819: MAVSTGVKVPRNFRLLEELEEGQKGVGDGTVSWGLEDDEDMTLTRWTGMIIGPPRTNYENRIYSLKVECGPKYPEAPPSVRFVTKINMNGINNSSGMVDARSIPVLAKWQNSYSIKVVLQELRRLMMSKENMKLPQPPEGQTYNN
UniProt O75083: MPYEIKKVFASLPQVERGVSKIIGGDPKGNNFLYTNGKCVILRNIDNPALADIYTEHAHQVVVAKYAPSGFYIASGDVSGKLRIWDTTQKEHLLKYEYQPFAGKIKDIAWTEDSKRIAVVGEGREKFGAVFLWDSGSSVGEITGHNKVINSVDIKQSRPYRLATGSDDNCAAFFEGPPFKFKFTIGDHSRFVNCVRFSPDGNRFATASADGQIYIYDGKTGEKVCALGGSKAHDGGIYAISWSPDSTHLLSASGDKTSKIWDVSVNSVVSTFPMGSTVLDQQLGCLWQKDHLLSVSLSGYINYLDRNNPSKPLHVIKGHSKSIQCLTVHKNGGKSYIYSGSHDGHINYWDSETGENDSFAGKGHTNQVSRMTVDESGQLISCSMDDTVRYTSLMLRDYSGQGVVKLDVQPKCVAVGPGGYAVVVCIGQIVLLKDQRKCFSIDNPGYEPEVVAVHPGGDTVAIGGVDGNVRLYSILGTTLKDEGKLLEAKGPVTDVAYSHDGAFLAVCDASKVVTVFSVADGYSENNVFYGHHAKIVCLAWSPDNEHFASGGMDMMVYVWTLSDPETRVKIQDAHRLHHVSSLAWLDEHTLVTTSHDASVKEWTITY
UniProt P25490, whole entry: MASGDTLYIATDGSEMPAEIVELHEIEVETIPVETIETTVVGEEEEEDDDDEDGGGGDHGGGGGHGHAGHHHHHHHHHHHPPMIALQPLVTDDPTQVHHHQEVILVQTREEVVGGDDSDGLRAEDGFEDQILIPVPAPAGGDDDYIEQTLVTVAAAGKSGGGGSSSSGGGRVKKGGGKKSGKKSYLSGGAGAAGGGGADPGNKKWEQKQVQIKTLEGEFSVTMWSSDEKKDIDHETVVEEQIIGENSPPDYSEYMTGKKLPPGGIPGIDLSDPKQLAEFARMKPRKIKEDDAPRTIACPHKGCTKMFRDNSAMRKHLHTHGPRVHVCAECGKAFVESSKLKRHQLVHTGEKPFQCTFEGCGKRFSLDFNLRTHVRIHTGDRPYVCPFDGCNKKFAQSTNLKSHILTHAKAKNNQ
UniProt Q9NQW7: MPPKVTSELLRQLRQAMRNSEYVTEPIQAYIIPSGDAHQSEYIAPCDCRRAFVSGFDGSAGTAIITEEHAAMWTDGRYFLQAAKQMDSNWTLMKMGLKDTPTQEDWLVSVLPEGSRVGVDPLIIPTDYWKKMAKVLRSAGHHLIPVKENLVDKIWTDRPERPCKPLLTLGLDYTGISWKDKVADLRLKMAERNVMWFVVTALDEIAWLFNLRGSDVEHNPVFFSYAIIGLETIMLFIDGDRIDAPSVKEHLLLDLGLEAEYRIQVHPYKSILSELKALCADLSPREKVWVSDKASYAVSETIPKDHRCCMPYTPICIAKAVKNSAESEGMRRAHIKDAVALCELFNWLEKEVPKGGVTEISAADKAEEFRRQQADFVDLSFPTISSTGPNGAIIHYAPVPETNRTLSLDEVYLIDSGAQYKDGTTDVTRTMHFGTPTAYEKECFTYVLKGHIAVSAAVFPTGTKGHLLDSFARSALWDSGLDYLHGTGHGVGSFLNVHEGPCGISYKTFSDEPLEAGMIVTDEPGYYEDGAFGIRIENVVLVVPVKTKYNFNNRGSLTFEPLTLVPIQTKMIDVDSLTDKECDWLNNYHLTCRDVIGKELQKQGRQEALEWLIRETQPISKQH
UniProt Q9H832: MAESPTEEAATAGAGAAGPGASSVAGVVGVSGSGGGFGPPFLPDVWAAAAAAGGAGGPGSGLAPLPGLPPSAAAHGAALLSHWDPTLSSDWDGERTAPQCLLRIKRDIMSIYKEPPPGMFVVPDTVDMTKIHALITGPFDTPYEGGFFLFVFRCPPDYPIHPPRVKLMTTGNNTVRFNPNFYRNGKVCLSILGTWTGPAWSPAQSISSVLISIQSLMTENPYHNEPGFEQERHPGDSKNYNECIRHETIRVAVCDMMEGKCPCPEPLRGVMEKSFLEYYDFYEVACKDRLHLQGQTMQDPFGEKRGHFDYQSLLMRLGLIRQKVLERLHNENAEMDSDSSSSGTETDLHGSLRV
UniProt Q9UID3: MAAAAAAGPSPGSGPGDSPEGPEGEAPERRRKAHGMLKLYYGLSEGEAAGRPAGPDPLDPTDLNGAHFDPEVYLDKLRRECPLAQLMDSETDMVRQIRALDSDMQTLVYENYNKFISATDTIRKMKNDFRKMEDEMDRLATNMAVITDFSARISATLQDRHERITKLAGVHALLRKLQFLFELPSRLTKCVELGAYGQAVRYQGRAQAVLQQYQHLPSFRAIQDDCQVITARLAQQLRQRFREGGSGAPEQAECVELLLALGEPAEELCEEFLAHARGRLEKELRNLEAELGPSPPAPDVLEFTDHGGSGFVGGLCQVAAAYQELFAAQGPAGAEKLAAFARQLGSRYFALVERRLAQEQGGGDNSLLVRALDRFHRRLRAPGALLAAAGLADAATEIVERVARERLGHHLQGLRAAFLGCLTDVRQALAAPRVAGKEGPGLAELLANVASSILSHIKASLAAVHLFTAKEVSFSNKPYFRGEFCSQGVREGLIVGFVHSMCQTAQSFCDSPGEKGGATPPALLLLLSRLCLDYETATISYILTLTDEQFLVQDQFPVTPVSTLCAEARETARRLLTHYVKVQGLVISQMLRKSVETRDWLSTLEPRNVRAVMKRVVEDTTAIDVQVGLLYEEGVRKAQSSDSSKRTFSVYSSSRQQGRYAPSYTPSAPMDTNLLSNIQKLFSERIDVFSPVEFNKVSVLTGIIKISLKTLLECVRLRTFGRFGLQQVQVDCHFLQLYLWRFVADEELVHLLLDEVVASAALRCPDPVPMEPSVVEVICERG

Each target was assayed with Nc1nc2c(ncn2[C@@H]2O[C@H](COP(=O)(O)OP(=O)(O)OP(=O)(O)O)[C@@H](O)[C@H]2O)c(=O)[nH]1 (assay: dose-dependent thermal stabilisation call (2D-TPP, DLPTP, 10% FDR) (binary (1 = stabilised)); higher = stabilised by the compound). Settings: system: Jurkat gel-filtered lysate; concentration range 1-500 µM.

dose-dependent thermal stabilisation call, active:
UGDH (UniProt O60701) 1, UCKL1 (UniProt Q9NWZ5) 1, VPS33B (UniProt Q9H267) 1, USP13 (UniProt Q92995) 1

dose-dependent thermal stabilisation call, inactive:
XPO7 (UniProt Q9UIA9) 0, ZBTB7A (UniProt O95365) 0, UTP3 (UniProt Q9NQZ2) 0, UBE4B (UniProt O95155) 0, WASHC2C (UniProt Q9Y4E1) 0, WASF1 (UniProt Q92558) 0, UBE2V2 (UniProt Q15819) 0, WDR1 (UniProt O75083) 0, WWP2 (UniProt O00308) 0, VPS36 (UniProt Q86VN1) 0, WDR7 (UniProt Q9Y4E6) 0, UBE3D (UniProt Q7Z6J8) 0, ZBTB11 (UniProt O95625) 0, YY1 (UniProt P25490) 0, XPNPEP1 (UniProt Q9NQW7) 0, ZC2HC1A (UniProt Q96GY0) 0, UBE2Z (UniProt Q9H832) 0, WTAP (UniProt Q15007) 0, USP25 (UniProt Q9UHP3) 0, VPS51 (UniProt Q9UID3) 0, ZBED8 (UniProt Q8IZ13) 0, WDR43 (UniProt Q15061) 0, UTRN (UniProt P46939) 0
